Reference: the supplement of paper PMC11732987, “Enantioselective OTUD7B fragment discovery through chemoproteomics screening and high-throughput optimisation” (Communications Chemistry, 2025)
Some of the results follow. The data scatter; read single values as rough.

Amino acid sequences for entries named in this document (tags omitted). A change or cut given only in a name is not applied to a line headed by its entry. Residues count along the entry.
UniProt Q14142, 231-252: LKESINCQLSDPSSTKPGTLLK
UniProt Q9Y5L0: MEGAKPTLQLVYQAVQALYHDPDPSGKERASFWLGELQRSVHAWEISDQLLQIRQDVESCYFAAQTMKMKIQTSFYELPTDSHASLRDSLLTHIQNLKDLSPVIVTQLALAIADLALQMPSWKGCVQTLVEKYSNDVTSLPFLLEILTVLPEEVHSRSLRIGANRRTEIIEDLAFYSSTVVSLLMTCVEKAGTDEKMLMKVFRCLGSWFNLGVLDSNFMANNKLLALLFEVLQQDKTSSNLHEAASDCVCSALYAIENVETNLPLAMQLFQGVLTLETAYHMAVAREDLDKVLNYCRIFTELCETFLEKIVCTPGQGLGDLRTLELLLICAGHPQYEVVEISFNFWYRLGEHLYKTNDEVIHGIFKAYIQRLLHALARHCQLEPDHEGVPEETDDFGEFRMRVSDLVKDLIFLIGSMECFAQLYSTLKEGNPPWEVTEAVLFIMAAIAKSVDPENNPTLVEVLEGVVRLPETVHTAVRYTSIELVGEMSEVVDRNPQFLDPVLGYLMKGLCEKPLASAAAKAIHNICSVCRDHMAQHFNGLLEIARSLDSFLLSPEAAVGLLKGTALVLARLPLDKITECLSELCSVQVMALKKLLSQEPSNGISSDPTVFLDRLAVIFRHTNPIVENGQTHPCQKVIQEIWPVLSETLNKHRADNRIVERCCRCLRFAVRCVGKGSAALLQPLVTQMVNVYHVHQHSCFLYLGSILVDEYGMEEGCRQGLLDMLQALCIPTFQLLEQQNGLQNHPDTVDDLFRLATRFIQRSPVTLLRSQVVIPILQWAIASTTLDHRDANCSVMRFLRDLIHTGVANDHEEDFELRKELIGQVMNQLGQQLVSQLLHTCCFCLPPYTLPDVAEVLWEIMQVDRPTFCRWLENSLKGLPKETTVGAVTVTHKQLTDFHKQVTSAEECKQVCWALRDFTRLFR
UniProt P12270, whole entry, looked up: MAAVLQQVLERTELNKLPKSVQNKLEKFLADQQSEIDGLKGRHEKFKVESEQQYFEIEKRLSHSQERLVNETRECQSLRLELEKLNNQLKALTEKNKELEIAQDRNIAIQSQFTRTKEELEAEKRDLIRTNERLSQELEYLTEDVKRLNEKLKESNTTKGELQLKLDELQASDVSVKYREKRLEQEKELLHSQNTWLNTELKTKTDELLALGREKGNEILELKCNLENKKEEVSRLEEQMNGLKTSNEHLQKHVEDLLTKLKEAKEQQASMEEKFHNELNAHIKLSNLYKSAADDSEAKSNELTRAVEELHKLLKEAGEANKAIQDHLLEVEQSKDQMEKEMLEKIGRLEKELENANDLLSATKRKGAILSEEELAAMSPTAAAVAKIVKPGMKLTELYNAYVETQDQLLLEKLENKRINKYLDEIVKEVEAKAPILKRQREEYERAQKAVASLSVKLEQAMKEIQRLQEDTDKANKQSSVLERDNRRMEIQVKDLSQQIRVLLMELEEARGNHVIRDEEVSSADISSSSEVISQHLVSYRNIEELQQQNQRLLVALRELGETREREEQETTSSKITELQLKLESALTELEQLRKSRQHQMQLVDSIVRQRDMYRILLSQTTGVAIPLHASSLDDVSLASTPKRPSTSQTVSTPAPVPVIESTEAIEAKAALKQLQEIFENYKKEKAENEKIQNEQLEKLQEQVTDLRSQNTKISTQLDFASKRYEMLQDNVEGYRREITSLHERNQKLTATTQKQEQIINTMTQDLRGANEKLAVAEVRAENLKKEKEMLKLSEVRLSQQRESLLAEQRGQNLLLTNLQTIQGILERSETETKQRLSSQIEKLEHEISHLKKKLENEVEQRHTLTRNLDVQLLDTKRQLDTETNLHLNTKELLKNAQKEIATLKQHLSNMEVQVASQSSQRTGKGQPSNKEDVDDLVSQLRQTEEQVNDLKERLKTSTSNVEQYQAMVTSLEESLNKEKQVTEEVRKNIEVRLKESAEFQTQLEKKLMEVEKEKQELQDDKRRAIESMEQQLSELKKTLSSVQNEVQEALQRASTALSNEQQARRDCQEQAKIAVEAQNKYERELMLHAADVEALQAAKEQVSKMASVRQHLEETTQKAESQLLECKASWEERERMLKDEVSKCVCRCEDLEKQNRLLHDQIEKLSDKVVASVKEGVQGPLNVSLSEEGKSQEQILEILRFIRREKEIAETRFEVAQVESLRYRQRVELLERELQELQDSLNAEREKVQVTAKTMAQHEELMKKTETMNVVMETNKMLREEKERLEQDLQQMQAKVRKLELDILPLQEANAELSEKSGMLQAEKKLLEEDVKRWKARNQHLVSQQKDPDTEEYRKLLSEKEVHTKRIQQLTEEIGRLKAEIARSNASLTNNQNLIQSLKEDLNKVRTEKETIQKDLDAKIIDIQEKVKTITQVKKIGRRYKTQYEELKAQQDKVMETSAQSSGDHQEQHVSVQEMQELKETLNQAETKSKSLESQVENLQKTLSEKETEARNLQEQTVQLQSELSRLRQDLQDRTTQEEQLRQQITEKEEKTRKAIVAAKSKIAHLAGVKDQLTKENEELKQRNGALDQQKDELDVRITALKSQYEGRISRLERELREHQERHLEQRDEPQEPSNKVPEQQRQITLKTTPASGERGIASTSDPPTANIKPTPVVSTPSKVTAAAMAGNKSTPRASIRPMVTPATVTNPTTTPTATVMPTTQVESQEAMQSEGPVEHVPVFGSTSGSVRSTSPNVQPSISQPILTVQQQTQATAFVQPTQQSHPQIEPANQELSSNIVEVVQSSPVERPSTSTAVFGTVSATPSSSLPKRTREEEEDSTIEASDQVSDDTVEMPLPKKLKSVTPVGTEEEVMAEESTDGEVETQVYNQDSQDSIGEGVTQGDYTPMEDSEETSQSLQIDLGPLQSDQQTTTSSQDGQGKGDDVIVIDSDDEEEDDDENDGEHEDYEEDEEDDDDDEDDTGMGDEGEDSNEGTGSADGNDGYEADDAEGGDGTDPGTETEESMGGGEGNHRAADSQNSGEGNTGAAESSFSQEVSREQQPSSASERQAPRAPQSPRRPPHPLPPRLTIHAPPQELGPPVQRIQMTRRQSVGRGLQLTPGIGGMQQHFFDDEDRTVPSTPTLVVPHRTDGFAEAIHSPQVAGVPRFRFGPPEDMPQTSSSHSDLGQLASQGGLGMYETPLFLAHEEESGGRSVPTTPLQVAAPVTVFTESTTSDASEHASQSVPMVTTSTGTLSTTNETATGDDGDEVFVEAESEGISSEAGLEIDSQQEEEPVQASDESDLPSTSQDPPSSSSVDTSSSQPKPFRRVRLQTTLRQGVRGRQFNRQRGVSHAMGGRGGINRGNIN
UniProt Q9Y4G6, 1008-1027: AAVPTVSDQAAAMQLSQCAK
UniProt Q8TBZ6: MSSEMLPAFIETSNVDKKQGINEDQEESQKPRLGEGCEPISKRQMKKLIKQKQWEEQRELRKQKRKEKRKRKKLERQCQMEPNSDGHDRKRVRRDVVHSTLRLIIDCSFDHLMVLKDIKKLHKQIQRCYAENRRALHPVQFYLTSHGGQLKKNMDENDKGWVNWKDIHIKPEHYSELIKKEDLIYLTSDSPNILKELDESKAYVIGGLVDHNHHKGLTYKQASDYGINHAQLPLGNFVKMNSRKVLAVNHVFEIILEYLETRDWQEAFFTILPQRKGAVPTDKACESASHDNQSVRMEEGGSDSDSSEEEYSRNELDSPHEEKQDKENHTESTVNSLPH
UniProt O14545: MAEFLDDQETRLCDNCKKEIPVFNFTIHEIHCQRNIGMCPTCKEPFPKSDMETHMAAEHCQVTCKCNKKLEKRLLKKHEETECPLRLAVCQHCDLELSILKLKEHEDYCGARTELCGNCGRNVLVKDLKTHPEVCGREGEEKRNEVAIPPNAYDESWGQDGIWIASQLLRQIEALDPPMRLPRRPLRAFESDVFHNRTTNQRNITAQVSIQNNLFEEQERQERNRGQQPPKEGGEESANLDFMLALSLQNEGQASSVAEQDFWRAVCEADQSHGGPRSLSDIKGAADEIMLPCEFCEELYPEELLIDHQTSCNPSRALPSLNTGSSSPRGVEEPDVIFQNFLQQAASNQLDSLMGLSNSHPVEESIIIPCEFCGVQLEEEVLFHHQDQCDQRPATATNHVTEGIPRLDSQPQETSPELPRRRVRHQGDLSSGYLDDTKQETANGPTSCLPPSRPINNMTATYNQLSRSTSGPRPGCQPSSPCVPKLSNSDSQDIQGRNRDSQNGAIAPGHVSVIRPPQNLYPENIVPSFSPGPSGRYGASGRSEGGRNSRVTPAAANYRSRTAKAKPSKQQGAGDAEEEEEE
UniProt Q9NYL9, 149-169: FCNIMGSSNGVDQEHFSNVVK
UniProt Q9Y5J9: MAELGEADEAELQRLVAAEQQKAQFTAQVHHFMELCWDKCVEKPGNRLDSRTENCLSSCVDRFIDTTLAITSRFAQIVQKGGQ
UniProt Q99805: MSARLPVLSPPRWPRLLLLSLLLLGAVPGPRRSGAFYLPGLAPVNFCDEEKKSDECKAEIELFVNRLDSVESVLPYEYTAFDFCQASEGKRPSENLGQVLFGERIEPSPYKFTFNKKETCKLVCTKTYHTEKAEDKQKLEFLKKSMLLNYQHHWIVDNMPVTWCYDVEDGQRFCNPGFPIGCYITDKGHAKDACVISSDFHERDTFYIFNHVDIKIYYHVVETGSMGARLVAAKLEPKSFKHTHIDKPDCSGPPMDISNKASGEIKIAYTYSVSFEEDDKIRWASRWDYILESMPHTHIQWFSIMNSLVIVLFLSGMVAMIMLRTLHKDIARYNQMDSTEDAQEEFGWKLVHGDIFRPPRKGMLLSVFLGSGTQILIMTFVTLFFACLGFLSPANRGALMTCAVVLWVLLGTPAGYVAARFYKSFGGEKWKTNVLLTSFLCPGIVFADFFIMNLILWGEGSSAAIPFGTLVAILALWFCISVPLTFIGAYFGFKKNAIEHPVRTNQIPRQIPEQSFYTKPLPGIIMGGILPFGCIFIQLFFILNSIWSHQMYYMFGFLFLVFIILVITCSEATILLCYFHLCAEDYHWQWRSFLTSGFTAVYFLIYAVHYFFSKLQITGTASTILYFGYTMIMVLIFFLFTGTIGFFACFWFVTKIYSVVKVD
UniProt Q9P2C4: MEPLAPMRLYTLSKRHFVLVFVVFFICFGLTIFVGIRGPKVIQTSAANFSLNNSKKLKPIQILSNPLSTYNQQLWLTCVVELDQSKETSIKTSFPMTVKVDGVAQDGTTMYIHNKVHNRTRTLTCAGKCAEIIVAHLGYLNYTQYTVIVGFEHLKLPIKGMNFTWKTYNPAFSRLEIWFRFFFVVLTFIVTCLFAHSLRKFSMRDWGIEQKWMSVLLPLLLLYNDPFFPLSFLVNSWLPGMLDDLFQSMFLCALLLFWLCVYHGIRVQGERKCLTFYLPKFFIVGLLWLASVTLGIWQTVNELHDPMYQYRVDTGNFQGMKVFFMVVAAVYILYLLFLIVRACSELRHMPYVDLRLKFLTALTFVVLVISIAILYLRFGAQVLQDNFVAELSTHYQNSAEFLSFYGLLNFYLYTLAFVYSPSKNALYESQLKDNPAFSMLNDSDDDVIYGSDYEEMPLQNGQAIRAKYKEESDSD
UniProt Q92973, 163-186: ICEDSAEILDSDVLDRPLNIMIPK
UniProt A5PLN9, 308-328: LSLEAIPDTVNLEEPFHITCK
UniProt Q92547, 1444-1465: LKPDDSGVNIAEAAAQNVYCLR
UniProt O94972: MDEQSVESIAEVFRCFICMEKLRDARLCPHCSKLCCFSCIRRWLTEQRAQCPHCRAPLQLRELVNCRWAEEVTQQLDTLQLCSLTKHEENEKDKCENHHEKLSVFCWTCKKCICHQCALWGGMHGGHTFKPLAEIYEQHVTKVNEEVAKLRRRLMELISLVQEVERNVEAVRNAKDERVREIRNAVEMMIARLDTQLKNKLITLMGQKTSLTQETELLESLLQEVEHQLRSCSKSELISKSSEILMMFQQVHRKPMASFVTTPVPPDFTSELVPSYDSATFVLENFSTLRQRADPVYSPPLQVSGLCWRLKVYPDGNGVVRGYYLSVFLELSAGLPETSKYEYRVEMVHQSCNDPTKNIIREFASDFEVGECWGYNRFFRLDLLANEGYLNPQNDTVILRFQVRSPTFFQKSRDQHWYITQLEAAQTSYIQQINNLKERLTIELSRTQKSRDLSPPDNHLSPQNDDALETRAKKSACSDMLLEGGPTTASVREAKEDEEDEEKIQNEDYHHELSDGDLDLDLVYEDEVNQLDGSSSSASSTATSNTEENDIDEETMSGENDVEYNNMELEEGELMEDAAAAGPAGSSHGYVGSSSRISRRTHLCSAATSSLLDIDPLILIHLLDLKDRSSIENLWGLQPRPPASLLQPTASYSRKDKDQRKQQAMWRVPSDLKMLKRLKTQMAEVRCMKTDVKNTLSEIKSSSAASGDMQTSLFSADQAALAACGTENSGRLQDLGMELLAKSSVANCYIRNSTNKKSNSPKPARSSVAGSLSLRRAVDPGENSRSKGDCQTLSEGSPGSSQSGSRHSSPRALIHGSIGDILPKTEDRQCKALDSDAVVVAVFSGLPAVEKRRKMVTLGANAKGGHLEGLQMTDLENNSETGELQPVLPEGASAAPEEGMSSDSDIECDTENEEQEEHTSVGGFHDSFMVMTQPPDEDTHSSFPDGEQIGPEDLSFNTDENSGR

Experiments:
[1] = compound: ClCC(=O)N[C@@H]1CCCc2ccccc12; assay: log2 mean competition ratio of IA-DTB cysteine labelling (DMSO/compound) (log2 ratio); higher = stronger cysteine engagement by compound; conditions: treatment time: 4 h, cell line lysate: HEK293T
Description: (§1)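 IA-DTB competitive cysteine chemoproteomics in HEK293T RIPA lysate. Lysates were treated with compound 29 or 30 at 50 or 200 µM for 4 h, then IA-DTB (500 µM, 1 h), trypsin-digested, NeutrAvidin-enriched and analysed by diaPASEF. Competition ratio = intensity DMSO / intensity compound (n=4 treated, n=64 DMSO); binding: mean log2 CR ≥ 1 and p ≤ 0.05 plus QC filters. Target is the cysteine site.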

[2] = compound: ClCC(=O)N[C@H]1CCCc2ccccc12; assay: as above; conditions: treatment time: 4 h, cell line lysate: HEK293T
Description: as §1

Target | log2 mean competition ratio ([1]; 50 µM) | log2 mean competition ratio ([1]; 200 µM) | log2 mean competition ratio ([2]; 50 µM) | log2 mean competition ratio ([2]; 200 µM)
TRAF2 C303 (UniProt Q12933) | -0.0886 | 0.0527 | -0.0301 | -0.0339
TRIM14 C20 (UniProt Q14142) | 0.00393 | 0.0962 | -0.139 | 0.0565
TNPO3 C125 (UniProt Q9Y5L0) | 0.121 | -0.214 | -0.013 | -0.149
TRIM38 C133 (UniProt O00635) | -0.216 | 0.136 | -0.27 | -0.00106
TMEM214 C222 (UniProt Q6NUQ4) | 0.529 | -0.158 | -0.256 | -0.231
TPR C1068 (UniProt P12270) | -0.269 | -0.11 | -0.244 | 0.281
TLN2 C1025 (UniProt Q9Y4G6) | 0.0193 | 0.0154 | 0.399 | 0.0197
TRMT10A C285 (UniProt Q8TBZ6) | -0.0544 | -0.0556 | -0.179 | 0.0337
TNPO3 C908 (UniProt Q9Y5L0) | -0.318 | 0.304 | 0.0232 | 0.404
TRIM56 C169 (UniProt Q9BRZ2) | -0.0609 | 0.0814 | 0.0277 | -0.24
TRAFD1 C135 (UniProt O14545) | -0.118 | -0.0493 | -0.131 | 0.0983
TNKS1BP1 C1373 (UniProt Q9C0C2) | 0.123 | -0.0106 | -0.0323 | -0.0269
TLE5 C26 (UniProt Q08117) | -0.0811 | 0.216 | 0.0076 | 0.209
TP53 C182 | -0.0567 | 0.134 | -0.776 | -0.137
TMOD3 C150 (UniProt Q9NYL9) | 0.577 | -0.34 | -0.143 | -0.0905
TNS3 C615 (UniProt Q68CZ2) | 0.0412 | -0.192 | -0.0147 | 0.0187
TNFAIP8 C186 (UniProt O95379) | -0.315 | -0.055 | 0.015 | -0.00886
TPMT C165 (UniProt P51580) | 0.117 | -0.534 | -0.0789 | -0.163
TIMM8B C40 (UniProt Q9Y5J9) | -0.0205 | 0.128 | 0.541 | 0.0533
TNPO2 C93 (UniProt O14787) | -0.349 | 0.103 | -0.138 | 0.147
TM9SF2 C194 (UniProt Q99805) | -0.171 | -0.0745 | -0.647 | -0.0858
TMEM209 C301 (UniProt Q96SK2) | 0.112 | 0.0207 | -0.00988 | -0.0935
TMPO C629 | 0.0142 | -0.0162 | 0.28 | 0.0147

Look-ups from above.
TNS3 C615 (UniProt Q68CZ2) | log2 mean competition ratio ([2]; 200 µM): 0.0187
TP53 C182 | log2 mean competition ratio ([1]; 200 µM): 0.134
TNPO3 C908 (UniProt Q9Y5L0) | log2 mean competition ratio ([2]; 50 µM): 0.0232

Following part

Target | log2 mean competition ratio ([1]; 50 µM) | log2 mean competition ratio ([1]; 200 µM) | log2 mean competition ratio ([2]; 50 µM) | log2 mean competition ratio ([2]; 200 µM)
TRIM33 C299 | -0.156 | -0.0582 | 0.225 | -0.0925
TMEM181 C262 (UniProt Q9P2C4) | 0.135 | -0.0689 | -0.0142 | -0.274
TNPO1 C103 (UniProt Q92973) | -0.218 | -0.0431 | 0.216 | -0.00102
TNPO1 C164 (UniProt Q92973) | 0.442 | -0.0721 | 0.15 | 0.109
TMEM63B C23 (UniProt Q5T3F8) | -0.165 | -0.0968 | 0.101 | 0.201
TRIM47 C631 (UniProt Q96LD4) | -0.0498 | 0.0726 | 0.212 | -0.0394
TRAFD1 C83 (UniProt O14545) | -0.116 | 0.552 | 0.116 | -0.0536
TMPO C280 | 0.0782 | 0.286 | 0.334 | 0.399
TRAPPC13 C327 (UniProt A5PLN9) | 0.0938 | -0.14 | -0.27 | 0.348
TMEM175 C32 (UniProt Q9BSA9) | 0.256 | -0.0172 | -0.143 | 0.131
TMEM131L C752 | -0.0205 | 0.534 | 0.0879 | 0.299
TMPO C341 | -0.00845 | 0.108 | 0.199 | 0.192
TRIOBP C2280 (UniProt Q9H2D6) | 0.387 | 0.0839 | 0.0697 | 0.228
TLCD1 C231 (UniProt Q96CP7) | 0.0172 | 0.121 | -0.161 | 0.11
TP53 C141 | -0.194 | -0.183 | 0.464 | -0.00218
TOPBP1 C1463 (UniProt Q92547) | 0.441 | 0.426 | 0.393 | 0.16
TPGS2 C12 | -0.103 | -0.0282 | -0.321 | -0.264
TMEM214 C529 (UniProt Q6NUQ4) | 0.155 | -0.179 | -0.192 | -0.129
TNRC18 C607 (UniProt O15417) | -0.329 | 0.0461 | 0.401 | -0.0361
TRIM14 C237 (UniProt Q14142) | 0.257 | 0.806 | -0.0165 | 0.173
TRIM37 C477 (UniProt O94972) | -1.13e-05 | -0.186 | 0.359 | -0.157
TNKS1BP1 C1296 (UniProt Q9C0C2) | 0.136 | -0.136 | 0.335 | 0.031
